{"sequences": {"note": "Chains of the proteins cited; added tags and fusions are not shown.", "UniProt P29590": "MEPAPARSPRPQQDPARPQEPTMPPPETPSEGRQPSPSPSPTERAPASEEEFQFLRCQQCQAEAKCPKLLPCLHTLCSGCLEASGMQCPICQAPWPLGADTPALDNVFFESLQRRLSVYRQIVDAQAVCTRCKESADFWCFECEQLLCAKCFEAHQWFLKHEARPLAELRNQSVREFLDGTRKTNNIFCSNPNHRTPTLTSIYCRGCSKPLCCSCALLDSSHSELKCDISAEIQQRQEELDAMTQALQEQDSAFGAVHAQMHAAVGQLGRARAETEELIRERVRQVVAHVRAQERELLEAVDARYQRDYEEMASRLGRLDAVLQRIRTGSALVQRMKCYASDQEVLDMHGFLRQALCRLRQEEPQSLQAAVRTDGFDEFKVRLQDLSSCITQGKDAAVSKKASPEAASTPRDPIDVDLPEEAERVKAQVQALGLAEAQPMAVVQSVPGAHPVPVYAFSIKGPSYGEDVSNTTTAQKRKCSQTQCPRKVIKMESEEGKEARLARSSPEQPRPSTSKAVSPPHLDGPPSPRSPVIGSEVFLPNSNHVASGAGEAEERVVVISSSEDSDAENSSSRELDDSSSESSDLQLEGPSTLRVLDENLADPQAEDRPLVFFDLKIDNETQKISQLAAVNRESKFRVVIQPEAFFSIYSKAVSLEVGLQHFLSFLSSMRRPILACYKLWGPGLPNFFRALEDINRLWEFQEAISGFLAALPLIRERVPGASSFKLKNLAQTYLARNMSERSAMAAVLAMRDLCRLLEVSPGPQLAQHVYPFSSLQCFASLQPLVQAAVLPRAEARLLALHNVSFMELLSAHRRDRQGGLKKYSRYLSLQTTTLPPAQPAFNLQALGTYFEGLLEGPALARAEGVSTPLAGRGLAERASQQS"}, "source": "paper PMC12053449", "molecular_target": "Flag-tagged wild-type PML (UniProt P29590)", "experiment": "native gel or EMSA; native polyacrylamide gel electrophoresis of WT and domain truncated PML; M monomer, D dimer, P polymer (Fig. 2F)", "note": "These are yes or no findings as the source states them, for the method shown. Some results given as binding are weak or reduced against the parent protein; the word gives no strength.", "data": [{"substance": "Flag-tagged wild-type PML (from UniProt P29590 1-882)", "values": [{"measurement": "binding", "value": "binds"}]}]}
